The list shows a part of the results. Single values are uncertain, as repeats are few or missing.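 Cells were imaged in 1,536-well plates, and nuclei stained with an antibody against cleaved PARP were counted against all DNA-stained nuclei to give the apoptosis fraction. Screening doses were chosen to leave most cells alive, and resting and induced cleaved-PARP levels differ strongly between cell lines.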
system: A101D; experiment: cleaved PARP positive nuclei fraction relative to DMSO control; melanoma cells; higher = more apoptosis; settings: library dose: low library concentration; 72 h

| Compound | cleaved PARP positive nuclei fraction |
| --- | --- |
| COc1ccc2c(c1)CCC1C2CCC2(C)C(NCCCCCCN3C(=O)C=CC3=O)CCC12 (stereo unspecified) + Oc1cc(-c2nc(-c3ccccc3)[nH]c2-c2ccncc2)ccc1Cl [L779450] (first compound 0.4 µM, partner dose 0.2 µM) | 98.2% |
| CN(C)S(=O)(=O)c1ccc2c(c1)/C(=C/c1cc3c([nH]1)CCCC3)C(=O)N2 + O=C(O)C(=O)Nc1sc2c(c1C(=O)O)CCNC2 [TCS401] (first compound 0.4 µM, partner dose 1.66667 µM) | 125% |
| COc1ccc(-c2ccc3c(N4CCOCC4)nc(N4C[C@@H](C)O[C@@H](C)C4)nc3n2)cc1CO + COc1cc(N2CCC(N3CCN(C)CC3)CC2)ccc1Nc1ncc(Cl)c(Nc2ccccc2S(=O)(=O)C(C)C)n1 [NVP-TAE684] (first compound 0.02 µM, partner dose 0.08 µM) | 185% |
| COc1cc2c(Oc3ccc4[nH]c(C)cc4c3F)ncnc2cc1OCCCN1CCCC1 [cediranib] + Oc1cc(-c2nc(-c3ccccc3)[nH]c2-c2ccncc2)ccc1Cl [L779450] (first compound 0.4 µM, partner dose 0.2 µM) | 83.7% |
| O=C(Nc1ccccc1)c1cc([N+](=O)[O-])ccc1Cl + Oc1cc(-c2nc(-c3ccccc3)[nH]c2-c2ccncc2)ccc1Cl [L779450] (first compound 2 µM, partner dose 0.2 µM) | 74.9% |
| O=C(Nc1ccccc1)c1cc([N+](=O)[O-])ccc1Cl + CCCCCCCCCCCC1=C(O)C(=O)C=C(O)C1=O [Embelin] (first compound 2 µM, partner dose 1.2 µM) | 47% |

— the supplement of paper PMC4604168 (melanoma cell lines)
